{"sequences": {"note": "Amino acid sequences for entries named in this document (tags omitted). A change or cut given only in a name is not applied to a line headed by its entry.", "UniProt Q96IZ6": "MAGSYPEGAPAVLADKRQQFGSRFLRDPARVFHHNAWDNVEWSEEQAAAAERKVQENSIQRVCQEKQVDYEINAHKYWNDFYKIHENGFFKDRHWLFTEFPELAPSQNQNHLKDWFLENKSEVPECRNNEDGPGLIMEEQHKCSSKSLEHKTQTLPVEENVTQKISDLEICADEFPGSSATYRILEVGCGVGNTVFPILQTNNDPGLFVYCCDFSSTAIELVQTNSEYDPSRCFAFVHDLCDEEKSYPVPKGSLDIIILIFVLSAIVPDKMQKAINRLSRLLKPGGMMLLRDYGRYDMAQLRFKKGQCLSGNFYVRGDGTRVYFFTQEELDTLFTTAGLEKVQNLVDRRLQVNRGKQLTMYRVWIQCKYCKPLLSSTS", "UniProt Q96Q45": "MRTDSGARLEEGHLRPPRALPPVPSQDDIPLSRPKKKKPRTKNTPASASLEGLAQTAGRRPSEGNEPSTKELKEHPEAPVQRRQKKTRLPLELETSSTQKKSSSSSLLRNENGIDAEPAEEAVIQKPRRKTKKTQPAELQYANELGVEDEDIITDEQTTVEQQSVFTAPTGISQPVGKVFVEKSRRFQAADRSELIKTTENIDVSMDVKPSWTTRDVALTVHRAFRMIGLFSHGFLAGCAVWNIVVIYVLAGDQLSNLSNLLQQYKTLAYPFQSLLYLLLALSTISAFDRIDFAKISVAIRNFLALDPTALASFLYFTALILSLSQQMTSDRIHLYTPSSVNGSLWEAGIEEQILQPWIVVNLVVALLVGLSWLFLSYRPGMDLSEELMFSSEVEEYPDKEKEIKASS", "UniProt Q96CT7": "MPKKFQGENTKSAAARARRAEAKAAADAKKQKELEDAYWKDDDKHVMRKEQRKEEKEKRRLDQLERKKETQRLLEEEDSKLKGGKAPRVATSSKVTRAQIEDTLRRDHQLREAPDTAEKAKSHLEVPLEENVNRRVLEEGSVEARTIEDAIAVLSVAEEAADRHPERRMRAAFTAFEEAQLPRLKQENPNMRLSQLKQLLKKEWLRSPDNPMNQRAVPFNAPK", "UniProt Q96CW6": "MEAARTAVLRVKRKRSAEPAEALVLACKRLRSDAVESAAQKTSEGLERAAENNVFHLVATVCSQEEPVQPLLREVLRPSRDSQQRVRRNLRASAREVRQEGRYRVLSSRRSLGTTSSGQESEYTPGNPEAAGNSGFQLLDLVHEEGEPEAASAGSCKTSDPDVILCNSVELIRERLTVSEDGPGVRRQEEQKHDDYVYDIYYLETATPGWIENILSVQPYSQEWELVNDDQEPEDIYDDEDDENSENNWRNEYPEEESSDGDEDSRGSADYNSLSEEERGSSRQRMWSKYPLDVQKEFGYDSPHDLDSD", "UniProt Q96GX9": "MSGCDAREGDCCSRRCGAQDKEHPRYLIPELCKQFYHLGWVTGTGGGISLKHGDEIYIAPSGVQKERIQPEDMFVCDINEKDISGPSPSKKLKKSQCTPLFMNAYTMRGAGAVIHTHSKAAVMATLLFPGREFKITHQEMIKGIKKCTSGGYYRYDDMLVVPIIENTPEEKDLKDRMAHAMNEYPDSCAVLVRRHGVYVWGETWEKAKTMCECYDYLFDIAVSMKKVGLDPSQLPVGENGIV", "UniProt Q96EW2": "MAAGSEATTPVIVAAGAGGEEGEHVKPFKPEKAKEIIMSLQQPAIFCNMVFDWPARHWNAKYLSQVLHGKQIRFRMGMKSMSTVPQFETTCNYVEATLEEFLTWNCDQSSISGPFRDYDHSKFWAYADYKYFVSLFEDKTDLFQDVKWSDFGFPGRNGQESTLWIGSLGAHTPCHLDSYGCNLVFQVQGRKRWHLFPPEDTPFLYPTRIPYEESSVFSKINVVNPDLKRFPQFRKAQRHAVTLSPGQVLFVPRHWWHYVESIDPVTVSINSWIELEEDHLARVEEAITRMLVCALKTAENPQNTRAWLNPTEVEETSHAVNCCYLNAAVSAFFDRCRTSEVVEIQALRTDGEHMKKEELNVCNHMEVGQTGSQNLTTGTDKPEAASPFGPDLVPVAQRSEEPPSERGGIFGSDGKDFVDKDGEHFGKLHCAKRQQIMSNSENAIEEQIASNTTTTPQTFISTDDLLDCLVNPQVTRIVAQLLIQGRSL", "UniProt Q96EY8": "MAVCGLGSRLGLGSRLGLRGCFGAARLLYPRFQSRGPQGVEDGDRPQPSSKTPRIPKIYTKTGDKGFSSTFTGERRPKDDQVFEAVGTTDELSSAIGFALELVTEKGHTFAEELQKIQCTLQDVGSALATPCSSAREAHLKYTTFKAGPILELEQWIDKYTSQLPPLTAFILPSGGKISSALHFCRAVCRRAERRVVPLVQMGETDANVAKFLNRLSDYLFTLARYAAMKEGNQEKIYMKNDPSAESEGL", "UniProt Q96N16": "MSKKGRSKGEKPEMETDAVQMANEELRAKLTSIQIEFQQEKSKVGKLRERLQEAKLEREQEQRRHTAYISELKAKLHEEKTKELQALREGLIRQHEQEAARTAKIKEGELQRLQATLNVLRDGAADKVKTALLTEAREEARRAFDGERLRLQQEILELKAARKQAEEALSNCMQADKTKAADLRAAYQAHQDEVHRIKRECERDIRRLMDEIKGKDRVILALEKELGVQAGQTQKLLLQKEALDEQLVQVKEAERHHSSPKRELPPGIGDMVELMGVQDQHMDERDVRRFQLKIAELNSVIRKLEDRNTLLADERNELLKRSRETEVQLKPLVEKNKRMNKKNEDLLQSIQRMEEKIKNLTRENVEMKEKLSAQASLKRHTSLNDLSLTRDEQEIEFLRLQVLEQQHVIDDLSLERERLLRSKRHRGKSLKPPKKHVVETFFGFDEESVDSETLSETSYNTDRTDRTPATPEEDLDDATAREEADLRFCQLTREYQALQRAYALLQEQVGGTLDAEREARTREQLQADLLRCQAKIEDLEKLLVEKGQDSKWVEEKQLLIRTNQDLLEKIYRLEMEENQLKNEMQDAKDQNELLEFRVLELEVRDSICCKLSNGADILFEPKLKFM", "UniProt Q96MG7": "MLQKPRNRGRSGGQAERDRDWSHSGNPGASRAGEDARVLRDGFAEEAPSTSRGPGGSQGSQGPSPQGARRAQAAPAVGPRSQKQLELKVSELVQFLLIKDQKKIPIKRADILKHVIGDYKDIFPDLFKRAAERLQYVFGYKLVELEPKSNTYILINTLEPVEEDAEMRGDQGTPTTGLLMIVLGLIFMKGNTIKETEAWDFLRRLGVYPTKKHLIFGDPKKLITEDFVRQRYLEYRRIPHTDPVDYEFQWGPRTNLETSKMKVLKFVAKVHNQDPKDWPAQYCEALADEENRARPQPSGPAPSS", "UniProt Q96DA6": "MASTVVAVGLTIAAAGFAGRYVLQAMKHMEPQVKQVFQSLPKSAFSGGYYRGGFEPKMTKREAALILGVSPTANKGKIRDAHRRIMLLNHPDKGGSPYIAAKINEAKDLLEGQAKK", "UniProt Q96C36": "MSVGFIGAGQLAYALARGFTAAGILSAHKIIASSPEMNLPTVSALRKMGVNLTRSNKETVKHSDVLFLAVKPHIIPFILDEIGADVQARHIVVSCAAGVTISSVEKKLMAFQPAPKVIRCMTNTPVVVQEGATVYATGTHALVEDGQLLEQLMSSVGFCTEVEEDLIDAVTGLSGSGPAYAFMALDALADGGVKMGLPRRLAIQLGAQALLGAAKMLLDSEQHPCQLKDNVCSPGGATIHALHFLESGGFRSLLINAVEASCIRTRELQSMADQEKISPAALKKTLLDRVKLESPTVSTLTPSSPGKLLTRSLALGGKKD", "UniProt Q96EA4": "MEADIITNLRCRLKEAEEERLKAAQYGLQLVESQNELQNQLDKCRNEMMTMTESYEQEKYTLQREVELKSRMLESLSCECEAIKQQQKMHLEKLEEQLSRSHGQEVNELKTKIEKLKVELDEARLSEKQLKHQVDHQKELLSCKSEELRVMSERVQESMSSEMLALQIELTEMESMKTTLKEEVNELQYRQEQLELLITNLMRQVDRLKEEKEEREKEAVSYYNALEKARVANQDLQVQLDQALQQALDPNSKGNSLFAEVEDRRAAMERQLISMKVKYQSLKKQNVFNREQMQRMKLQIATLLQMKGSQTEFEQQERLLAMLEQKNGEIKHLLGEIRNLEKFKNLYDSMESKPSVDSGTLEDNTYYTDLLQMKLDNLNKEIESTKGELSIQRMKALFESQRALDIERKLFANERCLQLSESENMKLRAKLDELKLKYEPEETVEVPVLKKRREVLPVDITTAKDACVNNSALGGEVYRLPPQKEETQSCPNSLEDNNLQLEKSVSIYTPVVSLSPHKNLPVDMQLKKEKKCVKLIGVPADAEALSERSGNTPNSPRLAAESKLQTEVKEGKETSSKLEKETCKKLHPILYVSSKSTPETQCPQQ", "UniProt Q96M27": "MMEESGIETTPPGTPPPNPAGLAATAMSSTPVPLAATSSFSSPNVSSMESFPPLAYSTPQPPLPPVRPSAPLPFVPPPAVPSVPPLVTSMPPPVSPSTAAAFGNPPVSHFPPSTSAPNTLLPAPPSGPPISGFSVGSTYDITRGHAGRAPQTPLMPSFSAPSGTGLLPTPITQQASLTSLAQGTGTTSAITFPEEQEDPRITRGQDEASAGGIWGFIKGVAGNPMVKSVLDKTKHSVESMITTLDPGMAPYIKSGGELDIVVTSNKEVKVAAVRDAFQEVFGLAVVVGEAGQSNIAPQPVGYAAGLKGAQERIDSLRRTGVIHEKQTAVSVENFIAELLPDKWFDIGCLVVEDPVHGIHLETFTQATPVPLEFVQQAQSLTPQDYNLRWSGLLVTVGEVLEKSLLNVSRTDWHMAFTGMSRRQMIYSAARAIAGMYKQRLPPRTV", "UniProt Q96HE7": "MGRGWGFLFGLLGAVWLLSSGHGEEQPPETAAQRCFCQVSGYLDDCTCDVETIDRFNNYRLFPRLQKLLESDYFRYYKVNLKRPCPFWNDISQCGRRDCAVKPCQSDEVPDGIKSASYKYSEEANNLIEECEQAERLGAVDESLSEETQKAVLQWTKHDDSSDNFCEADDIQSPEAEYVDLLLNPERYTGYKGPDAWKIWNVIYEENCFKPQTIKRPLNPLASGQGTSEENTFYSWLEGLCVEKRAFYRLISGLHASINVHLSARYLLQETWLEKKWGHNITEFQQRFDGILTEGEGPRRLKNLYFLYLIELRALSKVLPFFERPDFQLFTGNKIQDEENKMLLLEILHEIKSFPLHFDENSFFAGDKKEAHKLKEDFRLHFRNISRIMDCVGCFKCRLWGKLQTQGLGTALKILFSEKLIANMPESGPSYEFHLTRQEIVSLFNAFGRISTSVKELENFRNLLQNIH", "UniProt Q96G28": "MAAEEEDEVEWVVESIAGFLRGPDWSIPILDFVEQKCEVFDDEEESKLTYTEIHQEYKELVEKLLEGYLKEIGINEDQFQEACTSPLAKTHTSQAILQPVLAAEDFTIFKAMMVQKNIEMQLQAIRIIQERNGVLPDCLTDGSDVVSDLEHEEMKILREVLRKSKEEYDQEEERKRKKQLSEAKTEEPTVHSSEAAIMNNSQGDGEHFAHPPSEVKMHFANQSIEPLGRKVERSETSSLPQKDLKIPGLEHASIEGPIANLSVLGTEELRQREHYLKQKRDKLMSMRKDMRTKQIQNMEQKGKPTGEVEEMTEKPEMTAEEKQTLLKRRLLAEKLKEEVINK", "UniProt Q969F1": "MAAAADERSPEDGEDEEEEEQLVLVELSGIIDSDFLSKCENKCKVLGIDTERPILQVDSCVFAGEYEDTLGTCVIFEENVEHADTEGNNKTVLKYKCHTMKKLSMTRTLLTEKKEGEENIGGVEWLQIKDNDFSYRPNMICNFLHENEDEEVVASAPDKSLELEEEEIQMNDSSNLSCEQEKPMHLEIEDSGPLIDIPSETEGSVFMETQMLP", "UniProt Q96MX6, whole entry": "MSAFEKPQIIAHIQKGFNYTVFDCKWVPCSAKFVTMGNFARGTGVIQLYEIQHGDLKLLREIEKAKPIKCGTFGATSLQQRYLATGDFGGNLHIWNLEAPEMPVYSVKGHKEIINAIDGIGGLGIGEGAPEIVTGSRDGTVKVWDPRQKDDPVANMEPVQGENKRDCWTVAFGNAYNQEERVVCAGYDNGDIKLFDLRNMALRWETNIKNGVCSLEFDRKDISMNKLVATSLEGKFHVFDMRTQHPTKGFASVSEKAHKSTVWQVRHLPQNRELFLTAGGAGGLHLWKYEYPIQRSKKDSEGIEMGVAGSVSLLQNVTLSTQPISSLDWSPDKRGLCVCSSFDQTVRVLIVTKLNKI", "UniProt Q96DT6": "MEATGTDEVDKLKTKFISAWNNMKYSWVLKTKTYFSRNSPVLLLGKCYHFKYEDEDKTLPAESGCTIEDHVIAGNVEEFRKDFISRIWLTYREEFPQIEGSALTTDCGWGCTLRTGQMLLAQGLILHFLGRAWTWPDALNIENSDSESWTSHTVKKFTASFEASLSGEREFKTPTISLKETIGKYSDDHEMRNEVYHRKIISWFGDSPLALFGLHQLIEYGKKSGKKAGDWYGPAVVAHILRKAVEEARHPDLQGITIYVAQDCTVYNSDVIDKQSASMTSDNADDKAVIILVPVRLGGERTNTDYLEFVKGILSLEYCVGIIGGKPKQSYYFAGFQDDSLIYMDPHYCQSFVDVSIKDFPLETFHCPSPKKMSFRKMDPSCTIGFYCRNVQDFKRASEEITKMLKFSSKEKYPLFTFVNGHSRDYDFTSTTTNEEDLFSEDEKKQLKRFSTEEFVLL"}, "source": "the supplement of paper PMC6411743", "note": "± gives the standard deviation of the averaged measurements. This is a selection; strong and weak results do not stand in their true shares.", "data": [{"compound": "Nc1ncnc2c1ncn2[C@@H]1O[C@H](COP(=O)(O)OP(=O)(O)NP(=O)(O)O)[C@@H](O)[C@H]1O [adenylyl imidodiphosphate]", "experiment": "NP40-soluble protein abundance relative to vehicle (solubility fold change) (ratio); higher = more soluble protein in presence of AMP-PNP", "details": "concentration: 6mM", "in_short": "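Data come from three independent experiments in which Dounce-homogenised Jurkat crude lysate was treated at eight concentrations from 0.1 to 10 mM. Treatment ran 10 min at room temperature and then 3 min at 37 °C, after which 0.8% NP40 and benzonase were added for 60 min at 4 °C before ultracentrifugation. The supernatant underwent TMT labelling and LC-MS/MS, and vsn-normalised intensities were expressed as fold change against the detergent-processed vehicle in each replicate.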", "values": [{"target": "METTL2A (UniProt Q96IZ6)", "NP40-soluble protein abundance": "0.9925 ± 0.0071"}, {"target": "CHCHD1 (UniProt Q96BP2)", "NP40-soluble protein abundance": "0.981 ± 0.011"}, {"target": "UniProt Q92997 and related entries", "NP40-soluble protein abundance": "1 ± 0.038"}, {"target": "SNF8 (UniProt Q96H20)", "NP40-soluble protein abundance": "0.957 ± 0.04"}, {"target": "SMARCD1 (UniProt Q96GM5)", "NP40-soluble protein abundance": "1.01 ± 0.12"}, {"target": "UniProt Q96PE3 and related entries", "NP40-soluble protein abundance": "0.959 ± 0.038"}, {"target": "UniProt Q96B01 and related entries", "NP40-soluble protein abundance": "1.06 ± 0.035"}, {"target": "UniProt Q96Q45 and related entries", "NP40-soluble protein abundance": "0.984 ± 0.017"}, {"target": "ZFR (UniProt Q96KR1)", "NP40-soluble protein abundance": "1.05 ± 0.14"}, {"target": "FAHD2A (UniProt Q96GK7)", "NP40-soluble protein abundance": "0.963 ± 0.018"}, {"target": "CCDC124 (UniProt Q96CT7)", "NP40-soluble protein abundance": "1.58 ± 0.12"}, {"target": "UniProt Q93073 and related entries", "NP40-soluble protein abundance": "0.996 ± 0.013"}, {"target": "UniProt Q92973 and related entries", "NP40-soluble protein abundance": "1 ± 0.08"}, {"target": "UniProt Q96B36 and related entries", "NP40-soluble protein abundance": "1.01 ± 0.028"}, {"target": "SLC7A6OS (UniProt Q96CW6)", "NP40-soluble protein abundance": "1.02 ± 0.022"}, {"target": "UniProt Q96CB8 and related entries", "NP40-soluble protein abundance": "1.19 ± 0.15"}, {"target": "UniProt Q96GX9 and related entries", "NP40-soluble protein abundance": "0.997 ± 0.015"}, {"target": "TOE1 (UniProt Q96GM8)", "NP40-soluble protein abundance": "1.02 ± 0.041"}, {"target": "UniProt Q96CP6 and related entries", "NP40-soluble protein abundance": "1.02 ± 0.048"}, {"target": "EAF1 (UniProt Q96JC9)", "NP40-soluble protein abundance": "1.05 ± 0.04"}, {"target": "HSPBAP1 (UniProt Q96EW2)", "NP40-soluble protein abundance": "0.967 ± 0.03"}, {"target": "DNAJA3 (UniProt Q96EY1)", "NP40-soluble protein abundance": "0.949 ± 0.056"}, {"target": "UniProt Q96Q11 and related entries", "NP40-soluble protein abundance": "1.06 ± 0.045"}, {"target": "MMAB (UniProt Q96EY8)", "NP40-soluble protein abundance": "1.01 ± 0.029"}, {"target": "UniProt Q96N16 and related entries", "NP40-soluble protein abundance": "1.12 ± 0.054"}, {"target": "UniProt Q96MG7", "NP40-soluble protein abundance": "0.934 ± 0.034"}, {"target": "UniProt Q96DA6 and related entries", "NP40-soluble protein abundance": "0.962 ± 0.043"}, {"target": "FUBP3 (UniProt Q96I24)", "NP40-soluble protein abundance": "0.983 ± 0.014"}, {"target": "PYCR2 (UniProt Q96C36)", "NP40-soluble protein abundance": "1.01 ± 0.011"}, {"target": "UniProt Q96EA4", "NP40-soluble protein abundance": "0.974 ± 0.014"}, {"target": "PRRC1 (UniProt Q96M27)", "NP40-soluble protein abundance": "1.03 ± 0.046"}, {"target": "UniProt Q969M3 and related entries", "NP40-soluble protein abundance": "1 ± 0.021"}, {"target": "UniProt Q96HE7", "NP40-soluble protein abundance": "1.05 ± 0.071"}, {"target": "UniProt Q96G28 and related entries", "NP40-soluble protein abundance": "0.943 ± 0.031"}, {"target": "GTF3C6 (UniProt Q969F1)", "NP40-soluble protein abundance": "0.984 ± 0.018"}, {"target": "UniProt Q96EZ8 and related entries", "NP40-soluble protein abundance": "1.06 ± 0.018"}, {"target": "RBM14 (UniProt Q96PK6)", "NP40-soluble protein abundance": "1.3 ± 0.14"}, {"target": "LIN37 (UniProt Q96GY3)", "NP40-soluble protein abundance": "1.012 ± 0.0094"}, {"target": "WDR92 (UniProt Q96MX6)", "NP40-soluble protein abundance": "1.09 ± 0.06"}, {"target": "ATG4C (UniProt Q96DT6)", "NP40-soluble protein abundance": "0.976 ± 0.029"}]}]}
